Assay in all cases: co-IP; overexpressed MYC-AMBRA1 (WT or mutants) precipitated with anti-MYC antibody from transfected HeLa, control or Nocodazole-treated; MYC-β-Galactosidase as control; HEMG or CHAPS buffer, 4 °C; western blot
Experiment [1] has as its target MYC-AMBRA1 AA^1209/1223 (T1209A/S1223A) (human) (UniProt Q9C0C7).
Experiment [2] has as its target MYC-AMBRA1 S1223A (human) (UniProt Q9C0C7).
Experiment [3] addresses MYC-AMBRA1 AA^1209/1223 (T1209A/S1223A) (human) (UniProt Q9C0C7). This is another data set of the same source.

Protein sequences, listed by entry. Tags and fused reporters are not part of them. Lines headed by an entry give the natural chain unless they say otherwise; changes in a name come on top. Chains listed by the source or under a name are the forms on record and can include a tag or linker.
MYC-AMBRA1 AA^1209/1223 (T1209A/S1223A) (Q9C0C7, form named): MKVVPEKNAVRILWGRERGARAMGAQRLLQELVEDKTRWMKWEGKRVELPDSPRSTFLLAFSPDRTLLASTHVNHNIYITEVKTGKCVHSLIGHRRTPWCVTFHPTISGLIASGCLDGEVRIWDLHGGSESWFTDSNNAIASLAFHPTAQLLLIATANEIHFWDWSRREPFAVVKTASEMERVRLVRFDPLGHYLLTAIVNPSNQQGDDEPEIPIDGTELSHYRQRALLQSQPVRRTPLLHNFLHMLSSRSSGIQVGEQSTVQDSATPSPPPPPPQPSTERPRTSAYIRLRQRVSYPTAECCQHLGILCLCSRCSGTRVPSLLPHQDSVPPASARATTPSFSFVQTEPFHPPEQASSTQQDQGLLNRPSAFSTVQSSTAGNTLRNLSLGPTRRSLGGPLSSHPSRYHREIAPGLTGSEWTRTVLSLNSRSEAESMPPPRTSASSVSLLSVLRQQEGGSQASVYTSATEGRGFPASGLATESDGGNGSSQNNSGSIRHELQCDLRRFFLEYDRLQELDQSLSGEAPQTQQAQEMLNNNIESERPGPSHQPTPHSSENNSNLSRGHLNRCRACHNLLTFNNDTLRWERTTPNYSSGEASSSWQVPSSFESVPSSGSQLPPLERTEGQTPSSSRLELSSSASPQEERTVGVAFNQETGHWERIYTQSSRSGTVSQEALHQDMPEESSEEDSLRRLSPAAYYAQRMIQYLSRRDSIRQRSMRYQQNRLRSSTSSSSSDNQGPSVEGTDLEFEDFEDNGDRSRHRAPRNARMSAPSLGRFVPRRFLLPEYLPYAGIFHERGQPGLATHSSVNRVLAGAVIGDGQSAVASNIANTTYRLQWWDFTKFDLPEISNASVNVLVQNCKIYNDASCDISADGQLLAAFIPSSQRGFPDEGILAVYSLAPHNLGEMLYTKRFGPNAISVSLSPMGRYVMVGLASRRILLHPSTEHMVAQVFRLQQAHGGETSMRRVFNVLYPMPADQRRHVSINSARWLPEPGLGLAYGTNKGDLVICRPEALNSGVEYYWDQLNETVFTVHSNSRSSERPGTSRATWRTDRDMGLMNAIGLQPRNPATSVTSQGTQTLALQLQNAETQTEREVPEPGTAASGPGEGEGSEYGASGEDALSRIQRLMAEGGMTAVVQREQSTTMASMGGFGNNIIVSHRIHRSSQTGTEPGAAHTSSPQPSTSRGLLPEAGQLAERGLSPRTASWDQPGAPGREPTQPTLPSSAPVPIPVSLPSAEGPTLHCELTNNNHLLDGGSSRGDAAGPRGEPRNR
MYC-AMBRA1 S1223A (Q9C0C7, form named): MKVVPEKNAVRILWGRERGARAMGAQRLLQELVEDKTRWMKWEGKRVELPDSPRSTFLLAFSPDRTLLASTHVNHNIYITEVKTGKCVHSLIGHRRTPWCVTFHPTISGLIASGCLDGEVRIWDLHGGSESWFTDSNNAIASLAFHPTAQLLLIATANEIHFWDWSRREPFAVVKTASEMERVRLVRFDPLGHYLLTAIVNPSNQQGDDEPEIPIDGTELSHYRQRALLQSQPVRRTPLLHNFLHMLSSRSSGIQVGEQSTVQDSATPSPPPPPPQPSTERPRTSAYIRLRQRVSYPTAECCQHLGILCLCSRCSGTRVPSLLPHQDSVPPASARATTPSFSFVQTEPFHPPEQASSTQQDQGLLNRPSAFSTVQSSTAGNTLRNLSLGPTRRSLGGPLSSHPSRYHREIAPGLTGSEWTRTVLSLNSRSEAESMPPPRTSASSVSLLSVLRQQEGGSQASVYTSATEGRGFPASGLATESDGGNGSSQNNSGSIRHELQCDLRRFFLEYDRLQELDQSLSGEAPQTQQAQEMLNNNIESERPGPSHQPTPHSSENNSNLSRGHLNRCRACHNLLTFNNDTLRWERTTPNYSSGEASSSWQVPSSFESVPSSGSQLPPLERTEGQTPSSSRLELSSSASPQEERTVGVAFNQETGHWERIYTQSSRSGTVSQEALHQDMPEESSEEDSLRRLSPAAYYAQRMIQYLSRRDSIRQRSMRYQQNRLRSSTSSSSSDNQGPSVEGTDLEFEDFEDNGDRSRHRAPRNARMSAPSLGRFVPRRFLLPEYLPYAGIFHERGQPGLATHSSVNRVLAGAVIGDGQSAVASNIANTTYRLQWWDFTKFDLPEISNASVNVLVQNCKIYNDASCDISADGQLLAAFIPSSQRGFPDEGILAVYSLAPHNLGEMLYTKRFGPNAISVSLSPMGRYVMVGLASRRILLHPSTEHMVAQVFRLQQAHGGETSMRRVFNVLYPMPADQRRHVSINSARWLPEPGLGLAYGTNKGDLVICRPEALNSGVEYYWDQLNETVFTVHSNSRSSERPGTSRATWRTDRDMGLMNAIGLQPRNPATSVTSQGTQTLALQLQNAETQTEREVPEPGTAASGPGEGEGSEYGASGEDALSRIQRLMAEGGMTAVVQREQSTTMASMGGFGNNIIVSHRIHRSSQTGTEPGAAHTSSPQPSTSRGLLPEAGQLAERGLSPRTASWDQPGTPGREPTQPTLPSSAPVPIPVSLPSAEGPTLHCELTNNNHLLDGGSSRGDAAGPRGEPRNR
UniProt Q14980: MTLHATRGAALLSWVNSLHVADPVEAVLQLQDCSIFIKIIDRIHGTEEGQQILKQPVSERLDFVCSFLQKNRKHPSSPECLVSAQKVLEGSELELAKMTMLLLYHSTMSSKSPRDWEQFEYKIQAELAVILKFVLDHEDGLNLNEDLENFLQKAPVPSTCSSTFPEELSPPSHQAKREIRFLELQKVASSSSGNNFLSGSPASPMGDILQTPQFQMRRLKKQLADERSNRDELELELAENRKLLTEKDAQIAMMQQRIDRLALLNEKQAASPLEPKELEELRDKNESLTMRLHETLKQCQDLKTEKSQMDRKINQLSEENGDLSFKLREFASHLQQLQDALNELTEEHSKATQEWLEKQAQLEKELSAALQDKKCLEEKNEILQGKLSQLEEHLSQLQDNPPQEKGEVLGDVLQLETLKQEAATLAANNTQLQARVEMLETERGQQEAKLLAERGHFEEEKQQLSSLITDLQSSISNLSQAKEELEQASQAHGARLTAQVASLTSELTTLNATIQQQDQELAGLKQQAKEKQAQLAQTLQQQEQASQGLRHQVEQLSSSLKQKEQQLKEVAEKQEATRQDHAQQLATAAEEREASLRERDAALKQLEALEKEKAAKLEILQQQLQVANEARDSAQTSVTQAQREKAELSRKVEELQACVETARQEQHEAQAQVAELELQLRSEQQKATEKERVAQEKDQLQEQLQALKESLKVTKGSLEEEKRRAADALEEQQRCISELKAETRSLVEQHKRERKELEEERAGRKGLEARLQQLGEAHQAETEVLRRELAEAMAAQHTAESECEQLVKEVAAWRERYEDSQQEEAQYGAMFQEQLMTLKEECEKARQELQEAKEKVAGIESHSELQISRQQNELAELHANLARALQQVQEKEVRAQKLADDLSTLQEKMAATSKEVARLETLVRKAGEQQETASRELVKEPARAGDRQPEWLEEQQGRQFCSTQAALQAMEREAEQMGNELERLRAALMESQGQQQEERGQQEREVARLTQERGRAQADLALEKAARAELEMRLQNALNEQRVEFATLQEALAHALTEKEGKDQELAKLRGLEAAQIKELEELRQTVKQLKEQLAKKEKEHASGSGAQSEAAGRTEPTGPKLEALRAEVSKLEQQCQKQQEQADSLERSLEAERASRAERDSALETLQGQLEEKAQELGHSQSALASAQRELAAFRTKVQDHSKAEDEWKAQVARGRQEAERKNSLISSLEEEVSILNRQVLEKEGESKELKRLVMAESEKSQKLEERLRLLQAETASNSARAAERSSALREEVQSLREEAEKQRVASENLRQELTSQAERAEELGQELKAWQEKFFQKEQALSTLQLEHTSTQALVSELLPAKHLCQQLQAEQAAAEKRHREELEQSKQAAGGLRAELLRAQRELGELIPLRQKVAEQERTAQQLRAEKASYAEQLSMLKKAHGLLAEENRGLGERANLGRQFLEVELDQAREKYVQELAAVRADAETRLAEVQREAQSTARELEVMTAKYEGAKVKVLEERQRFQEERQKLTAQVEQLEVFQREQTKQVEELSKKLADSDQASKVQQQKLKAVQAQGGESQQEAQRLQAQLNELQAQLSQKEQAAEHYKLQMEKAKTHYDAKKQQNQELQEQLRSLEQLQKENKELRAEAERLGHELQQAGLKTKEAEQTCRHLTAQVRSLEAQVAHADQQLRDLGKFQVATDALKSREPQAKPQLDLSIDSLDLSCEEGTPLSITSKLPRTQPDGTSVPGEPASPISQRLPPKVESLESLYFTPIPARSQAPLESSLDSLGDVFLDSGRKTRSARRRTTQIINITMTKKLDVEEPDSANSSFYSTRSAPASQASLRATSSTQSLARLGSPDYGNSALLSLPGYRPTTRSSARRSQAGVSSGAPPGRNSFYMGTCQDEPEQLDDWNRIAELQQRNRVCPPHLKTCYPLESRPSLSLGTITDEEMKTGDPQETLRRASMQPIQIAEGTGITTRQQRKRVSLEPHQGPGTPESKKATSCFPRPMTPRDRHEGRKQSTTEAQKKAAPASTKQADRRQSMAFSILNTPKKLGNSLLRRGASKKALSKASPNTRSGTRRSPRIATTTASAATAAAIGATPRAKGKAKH

This passage reports binding results from article PMC10432340.

Read-outs that look alike come from different tables or passages of the source. These are yes or no findings as the source states them, for the method shown. In cells and extracts the contact can be indirect. Some entries that bind do so weakly or less than the wild type.

“Nuclear mitotic apparatus 1 (from UniProt Q14980 1-2115)”: the binding result in experiment [1] was “binds”. With “Polo-like kinase 1 (from UniProt P53350 1-603) (enzyme)”, the binding entry in experiment [1] and in experiment [2] was “binds” in each case.

B1: Aurora Kinase A (enzyme, UniProt O14965 1-403)
chain: MDRSKENCISGPVKATAPVGGPKRVLVTQQFPCQNPLPVNSGQAQRVLCPSNSSQRIPLQAQKLVSSHKPVQNQKQKQLQATSVPHPVSRPLNNTQKSKQPLPSAPENNPEEELASKQKNEESKKRQWALEDFEIGRPLGKGKFGNVYLAREKQSKFILALKVLFKAQLEKAGVEHQLRREVEIQSHLRHPNILRLYGYFHDATRVYLILEYAPLGTVYRELQKLSKFDEQRTATYITELANALSYCHSKRVIHRDIKPENLLLGSAGELKIADFGWSVHAPSSRRTTLCGTLDYLPPEMIEGRMHDEKVDLWSLGVLCYEFLVGKPPFEANTYQETYKRISRVEFTFPDFVTEGARDLISRLLKHNPSQRPMLREVLEHPWITANSSKPSNCQNKESASKQS
Turning to B1, the binding entry in experiment [3] is on record as “binds”.
